The values below come from paper PMC11633369.

The exact form of at least one protein or probe is not confirmed. For some assays here: A negative result means that nothing was seen under these conditions. For some assays here: At least one verdict was read from the data and is not stated in words by the source. For some assays here: The comparison behind a weaker result is the experiment's own reference, which may not be listed here.

The test system of one series is His-BSD1 (Solanum lycopersicum (tomato)). The series is described as follows: EMSA. The conditions noted are these: LightShift chemiluminescent EMSA kit (buffer per manufacturer, not stated), 20 min at room temperature, 10% native polyacrylamide gel; recombinant protein; protein details: His (N-terminal implied by construct name); label: biotin 3'.
In the case of “TTCTCCATTTTACTCTTCTCCATTTTACTCTTCTCCATTTTACTC (double strand) [Tru1 (3 copies)]”, the binding result is listed as “no binding”.

Turning to “CTTATTTTCTTATTTTCTTATTTTCTTATTTT (double strand) [M2-2 (CTTATTTT, 4 copies)]”, the binding result is “no binding”. Turning to “CTTATTTGCTTATTTGCTTATTTGCTTATTTG (double strand) [M2-3 (CTTATTTG, 4 copies)]”, the binding result is reported as “no binding”. “CTTATTTAAAAATTTTACTCCTTATTTAAAAATTTTACTCCTTATTTAAAAATTTTACTC (double strand) [Mut2 (3 copies)]”: the binding result is listed as “binds”. With “TCCTTATTTATGTGATATAATCCTTATTTATGTGATATAATCCTTATTTATGTGATATAA (double strand) [KAO promoter probe (3 copies)]”, the binding result is “binds”. As to “CTTATTTCTCCATTCTTATTTCTCCATTCTTATTTCTCCATT (double strand) [Tru2 (3 copies)]”, the binding result is given as “binds”. With “CTTATTTCCTTATTTCCTTATTTCCTTATTTC (double strand) [Tru21 (CTTATTTC, 4 copies)]”, the binding result is given as “binds”. With “CATTACACTTATTTAGTAGACATTACACTTATTTAGTAGACATTACACTTATTTAGTAGA (double strand) [GA3ox4 promoter probe (3 copies)]”, the binding result is listed as “binds more weakly”. Still for that read-out and setting: under “CTTATTTACTTATTTACTTATTTACTTATTTA (double strand) [M2-1 (CTTATTTA, 4 copies)]” stands “binds”; under “CCATTTTACTCCATTTTACTCCATTTTACTCCATTTTACT (double strand) [Tru14]”, “no binding”. Turning to “TAACTTATTTCCAACTTGAATAACTTATTTCCAACTTGAATAACTTATTTCCAACTTGAA (double strand) [CPS2 promoter probe (3 copies)]”, the binding result is “binds”. For the sequence “CTTAAAACTCCATTTTACTCCTTAAAACTCCATTTTACTCCTTAAAACTCCATTTTACTC (double strand) [Mut1 (S2-3-2 mutant, 3 copies)]”, the binding result is listed as “no binding”. “CTTATTTCTCCATTTTACTC (double strand) [S2-3-2]”: the binding result is reported as “binds”.

For a further series the test system is unchanged. The series is described as follows: competition with a labelled probe. The conditions noted are these: 50-fold unlabeled S2-3-2 abolishes binding; LightShift chemiluminescent EMSA kit (buffer per manufacturer, not stated), 20 min at room temperature, 10% native polyacrylamide gel; recombinant protein; protein details: His (N-terminal implied by construct name); label: biotin 3'.
On to “CTTATTTCTCCATTTTACTC (double strand) [S2-3-2]”, for which the binding result was “binds”.
